The exact form of at least one protein or probe is not confirmed. At least one verdict rests on a figure or table, not on a statement of the authors.

The text below walks through data of paper PMC5526262.

The data set relates to AcrC (formerly MalR), LacI family regulator (Actinoplanes sp. SE50/110 (ATCC 31044)). Description: competition with a labelled probe. The note with it: 12.5 pmol unlabeled competitor, complete displacement from 50-fold excess, partial at 25-fold; 20 uL; 1x EMSA buffer (20 mM Na2HPO4, 75 mM KCl, 5% glycerol, pH 8), 2.5 mM MgCl2, 0.1 mM EDTA, 0.05 ug herring sperm DNA, 0.1 ug BSA, 20 min at room temperature; recombinant protein; protein details: C-terminal His6. Background: In EMSA bound probe runs differently from free probe, usually more slowly.
Consider “GTCTTCTGCAAGTTCTTGCAGCGGTC (double strand) [Displacement oligo 2 (acrC site acbD, O2)]”, for which the binding result is “binds”.

As to “AAGCTCTTGCAGTCAATGGAAGGGCTT (double strand) [Displacement oligo 3 (acrC site acrC)]”, the binding result was “binds”.

“AAGAACTTGCTGTTTTAGCAAGAAGTT (double strand) [Displacement oligo 1 (acrC site acbE, O1)]”: the binding result is recorded as “binds”.
